The list shows only some results of the screen, not a fair sample: it is rich in T/C values a quarter to a half above the control, in often repeated tests (any T/C) and in doses without a T/C. Other doses and runs of a compound stand elsewhere. T/C: endpoint of the treated group in % of that of the vehicle group. Some doses have a count of surviving animals in place of a T/C: the source files T/C as zero there, which appears to mark a toxic dose or a test without result, not a measured value. Some survivor counts are full or nearly so, which does not show that the dose was tolerated: survival well below the control is almost never listed, so the zero probably covers shortened survival too. Counts of survivors are from the toxicity check (mostly the fifth day) where no day follows; animals may have died later. Schedules are NCI's codes, read here as Q, the interval in days (D) or hours (H), X, the number of doses. Additions like (4×) stand for listed records that agree. Some entries were tested several times; the values are given in rising order. For survival time, the PubChem record calls one and a half times the control and up active, and a quarter to a half above the control has no call in these data; cut-offs in other NCI protocols can differ. Some T/C values carry the count of animals alive at the toxicity check (mostly the fifth day); without a count, all were alive then.
Test system: P388 leukemia ip, CD2F1 mice, survival T/C
Assay: NCI In Vivo Anticancer Drug Screen. Data for tumor model P388 Leukemia (intraperitoneal) in CD2F1 (CDF1) mice
Conditions: T/C endpoint: median survival time, higher T/C = longer survival
[1] = dose: 25.0 mg/kg/injection, schedule: Q01DX009 (ip), vehicle: saline with Tween-80
[2] = dose: 50.0 mg/kg/injection, schedule: Q01DX009 (ip), vehicle: saline with Tween-80
[3] = dose: 100.0 mg/kg/injection, schedule: Q01DX009 (ip), vehicle: saline with Tween-80
[4] = dose: 60.0 mg/kg/injection, schedule: Q01DX005 (ip), vehicle: saline with Tween-80
[5] = dose: 240.0 mg/kg/injection, schedule: Q01DX005 (ip), vehicle: saline with Tween-80
[6] = dose: 100.0 mg/kg/injection, schedule: Q01DX009 (ip), vehicle: Klucel (hydroxypropylcellulose) (HPC)
[7] = dose: 200.0 mg/kg/injection, schedule: Q01DX009 (ip), vehicle: Klucel (hydroxypropylcellulose) (HPC)
[8] = dose: 30.0 mg/kg/injection, schedule: Q01DX005 (ip), vehicle: saline with Tween-80
[9] = dose: 120.0 mg/kg/injection, schedule: Q01DX005 (ip), vehicle: saline with Tween-80
[10] = dose: 200.0 mg/kg/injection, schedule: Q01DX009 (ip), vehicle: water
[11] = dose: 0.25 mg/kg/injection, schedule: Q01DX005 (ip), vehicle: saline
[12] = dose: 200.0 mg/kg/injection, schedule: Q01DX009 (ip), vehicle: saline with Tween-80

CCOC1CCC2C(CCC(/C=C/c3ccc(O)c4ncccc34)N2C)C1 (stereo unspecified)
T/C (dose: 6.25 mg/kg/injection, schedule: Q01DX009 (ip), vehicle: saline with Tween-80): 128 % of control
T/C (dose: 12.5 mg/kg/injection, schedule: Q01DX009 (ip), vehicle: saline with Tween-80): 129 % of control
T/C [1]: 149 % of control (2×)
T/C [2]: 142 % of control
survivor count [2]: 6 of 6
survivor count [3]: 0 of 6

N=C1C=CC2C(=Nc3ccccc3[N+]2=O)N1CCO (stereo unspecified)
T/C [4]: 125 % of control [5 of 6 alive]
survivor count [5]: 0 of 6 and 1 of 6

COc1ccc2c(c1)n([O-])c1ccccc1[n+]2=O
T/C (dose: 50.0 mg/kg/injection, schedule: Q01DX005 (ip), vehicle: saline with Tween-80): 127 and 141 % of control
survivor count (dose: 200.0 mg/kg/injection, schedule: Q01DX005 (ip), vehicle: saline with Tween-80): 1 of 5 and 5 of 6

CNC(=O)OCc1c(COC(=O)NC)c(-c2ccc(Cl)cc2)n2c1CCC2
T/C (dose: 3.13 mg/kg/injection, schedule: Q01DX009 (ip), vehicle: Klucel (hydroxypropylcellulose) (HPC)): 127 % of control
survivor count [6]: 1 of 6
survivor count [7]: 0 of 6

Oc1ccc(C[n+]2ccccc2)cc1O
survivor count (dose: 50.0 mg/kg/injection, schedule: Q01DX005 (ip), vehicle: saline): 0 of 6
survivor count (dose: 100.0 mg/kg/injection, schedule: Q01DX005 (ip), vehicle: saline): 0 of 6
survivor count (dose: 200.0 mg/kg/injection, schedule: Q01DX005 (ip), vehicle: saline): 0 of 6

O=C(CN1CCN(c2ccccc2)CC1)n1cnc2ccc([N+](=O)[O-])cc21
survivor count [5]: 6 of 6

CCC[CH2][Sn]([Cl])([CH2]CCC)[S]/C(C#N)=N/N=C/c1ccc(N(C)C)cc1
survivor count [8]: 3 of 6
survivor count [4]: 0 of 6
survivor count [9]: 3 of 6
survivor count [5]: 0 of 6

Cn1nc(C(N)=O)c2c(N)ncnc21
survivor count (dose: 15.0 mg/kg/injection, schedule: Q01DX005 (ip), vehicle: saline with Tween-80): 3 of 6
survivor count [8]: 2 of 6
survivor count [4]: 5 of 6
survivor count [9]: 4 of 6
survivor count [5]: 0 of 6

CCN(CC)CCN1C(=O)C2C3C=CC(C2C1=O)C1C2C(=O)N(CCN(CC)CC)C(=O)C2C31 (stereo unspecified)
survivor count [10]: 1 of 6 and 2 of 5

COc1c2c(c(O)c3c4c(c(C)cc13)C1OC3(C(OC)OC5CC(C)(O)C(OC6CC(C)(O)C(O)C(C)O6)C(C)O5)OC1C(OC)(O4)C31CO1)C(=O)C(O)CC2OC1CC(C)(O)C(OC(C)=O)C(C)O1 (stereo unspecified)
T/C (dose: 0.03 mg/kg/injection, schedule: Q01DX005 (ip), vehicle: saline): 138 % of control
T/C (dose: 0.06 mg/kg/injection, schedule: Q01DX005 (ip), vehicle: saline): 148 % of control
T/C [11]: 149 % of control
survivor count [11]: 6 of 6
survivor count (dose: 0.5 mg/kg/injection, schedule: Q01DX005 (ip), vehicle: saline): 6 of 6 (2×)
survivor count (dose: 1.0 mg/kg/injection, schedule: Q01DX005 (ip), vehicle: saline): 3 of 6 and 6 of 6

CC/C(=C(\CC)c1ccc(OC)cc1)c1ccc(OC)cc1
T/C [12]: 132 % of control [5 of 6 alive]

O=C(CS)Nc1ccccn1
survivor count [6]: 6 of 6
survivor count [7]: 0 of 6

CNc1ncnc2[nH]ncc12
survivor count [3]: 2 of 6
survivor count (dose: 100.0 mg/kg/injection, schedule: Q04DX003 (ip), vehicle: saline sonified): 3 of 6
survivor count [12]: 0 of 6
survivor count (dose: 400.0 mg/kg/injection, schedule: Q04DX003 (ip), vehicle: saline sonified): 1 of 6

Cn1ncc2c(N)ncnc21
survivor count [3]: 6 of 6
survivor count [12]: 1 of 6
survivor count (dose: 400.0 mg/kg/injection, schedule: Q04DX003 (ip), vehicle: saline with Tween-80): 1 of 6

CCN(CC)CCCOC(=O)N(Cc1ccc(Cl)cc1)C1CC1
survivor count (dose: 200.0 mg/kg/injection, schedule: Q01DX009 (ip), vehicle: saline + Tween-80 + alcohol): 0 of 6

Cc1ccc(NCCCN2CCN(CCCNc3ccc(C)c4sc5ccccc5c(=O)c34)CC2)c2c(=O)c3ccccc3sc12
survivor count (dose: 6.25 mg/kg/injection, schedule: Q01DX005 (ip), vehicle: saline with Tween-80): 6 of 6
survivor count (dose: 8.0 mg/kg/injection, schedule: Q01DX005 (ip), vehicle: saline with Tween-80): 6 of 6
survivor count (dose: 13.0 mg/kg/injection, schedule: Q01DX005 (ip), vehicle: saline with Tween-80): 6 of 6
survivor count (dose: 26.0 mg/kg/injection, schedule: Q01DX005 (ip), vehicle: saline with Tween-80): 6 of 6
survivor count (dose: 52.0 mg/kg/injection, schedule: Q01DX005 (ip), vehicle: saline with Tween-80): 6 of 6

Cc1cccc(N(CCOS(C)(=O)=O)CCOS(C)(=O)=O)c1
T/C (dose: 3.12 mg/kg/injection, schedule: Q01DX009 (ip), vehicle: saline): 125 % of control
T/C (dose: 6.25 mg/kg/injection, schedule: Q01DX009 (ip), vehicle: saline): 141 % of control
survivor count [1]: 5 of 6
survivor count [2]: 0 of 6
survivor count [3]: 0 of 6
survivor count [12]: 0 of 6

Cc1ccc(NC(=O)N2CC2)cc1NC(=O)N1CC1
T/C (dose: 3.12 mg/kg/injection, schedule: Q01DX009 (ip), vehicle: Klucel (hydroxypropylcellulose) (HPC)): 137 % of control
survivor count (dose: 6.25 mg/kg/injection, schedule: Q01DX009 (ip), vehicle: Klucel (hydroxypropylcellulose) (HPC)): 6 of 6
survivor count (dose: 12.5 mg/kg/injection, schedule: Q01DX009 (ip), vehicle: Klucel (hydroxypropylcellulose) (HPC)): 6 of 6
survivor count (dose: 25.0 mg/kg/injection, schedule: Q01DX009 (ip), vehicle: Klucel (hydroxypropylcellulose) (HPC)): 4 of 6 (2×)
survivor count (dose: 50.0 mg/kg/injection, schedule: Q01DX009 (ip), vehicle: Klucel (hydroxypropylcellulose) (HPC)): 0 of 6
survivor count [6]: 0 of 6

COC(=O)C(Br)CCCC(Br)C(=O)OC (stereo unspecified)
survivor count (dose: 400.0 mg/kg/injection, schedule: Q01DX009 (ip), vehicle: distilled water + Tween-80): 1 of 6

COC(=O)C1OC(SC(=N)N)C(OC(C)=O)C(OC(C)=O)C1OC(C)=O (stereo unspecified)
survivor count (dose: 100.0 mg/kg/injection, schedule: Q01DX009 (ip), vehicle: water): 4 of 6
survivor count [10]: 3 of 6

O=c1oc(-c2ccc(Cl)c([N+](=O)[O-])c2)ns1
survivor count (dose: 400.0 mg/kg/injection, schedule: Q01DX009 (ip), vehicle: Klucel (hydroxypropylcellulose) (HPC)): 3 of 6

Cc1ccc(-c2cn3ccsc3n2)cc1
survivor count (dose: 400.0 mg/kg/injection, schedule: Q01DX001 (ip), vehicle: Klucel (hydroxypropylcellulose) (HPC)): 3 of 6
